Test results from PubChem BioAssay AID540275 (National Center for Advancing Translational Sciences (NCATS), 2011).
Out of some 320,000 compounds screened, about 620 (0.19%) were called active. This list was built around the results that the source calls inconclusive (neither active nor inactive); the mix of calls is not that of the screen. No stated cut-off is given here; in the data, active means activation above about 80%; inconclusive means between about 30% and that limit; inactive means weaker than that.

Chains of the proteins cited; added tags and fusions are not shown.
UniProt Q8NER1, whole entry, looked up: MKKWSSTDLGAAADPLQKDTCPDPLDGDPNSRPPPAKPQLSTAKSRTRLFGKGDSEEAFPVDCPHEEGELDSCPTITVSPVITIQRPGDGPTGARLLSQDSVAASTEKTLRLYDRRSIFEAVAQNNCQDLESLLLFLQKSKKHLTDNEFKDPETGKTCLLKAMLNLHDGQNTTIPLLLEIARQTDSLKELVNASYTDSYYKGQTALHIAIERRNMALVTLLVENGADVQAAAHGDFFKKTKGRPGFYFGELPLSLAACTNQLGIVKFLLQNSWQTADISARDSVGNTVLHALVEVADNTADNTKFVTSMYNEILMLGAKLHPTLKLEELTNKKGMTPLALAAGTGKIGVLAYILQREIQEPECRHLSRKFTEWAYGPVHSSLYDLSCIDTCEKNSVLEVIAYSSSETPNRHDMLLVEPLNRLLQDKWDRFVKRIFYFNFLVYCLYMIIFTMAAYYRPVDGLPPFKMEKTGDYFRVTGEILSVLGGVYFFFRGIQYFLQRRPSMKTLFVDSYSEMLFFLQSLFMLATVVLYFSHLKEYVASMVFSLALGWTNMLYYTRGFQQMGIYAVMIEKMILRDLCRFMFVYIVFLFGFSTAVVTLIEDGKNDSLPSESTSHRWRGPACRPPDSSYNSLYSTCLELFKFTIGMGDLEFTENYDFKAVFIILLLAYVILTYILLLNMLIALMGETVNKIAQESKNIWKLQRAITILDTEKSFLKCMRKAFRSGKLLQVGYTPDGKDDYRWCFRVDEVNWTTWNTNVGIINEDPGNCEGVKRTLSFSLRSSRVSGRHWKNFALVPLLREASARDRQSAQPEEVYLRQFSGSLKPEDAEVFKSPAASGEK

Molecular target: Transient receptor potential cation channel subfamily V member 1 (Homo sapiens) (UniProt Q8NER1)
Assay: HTS Assay for Compounds that Act as Agonists of the Vanilloid Receptor 1; further: 0% is about no effect
Details: TRPV1-expressing cells, Fluo-8 calcium influx, agonist mode; at 8.33 µM, hits give high values
Method in brief: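 Cells expressing TRPV1 were dye-loaded with Fluo-8 and read kinetically: 10 s baseline, 3 min after compound (agonist portion), then 2 min after EC20 capsaicin (allosteric enhancer portion). Calcium-bound dye fluorescence at 480/520 nm.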

| SMILES | activation |
| --- | --- |
| CCC1CCCCN1S(=O)(=O)c1ccc(NC(=O)c2snnc2C)cc1 (centres undefined) | inconclusive: 37.4% |
| O=C(Nc1ccc(F)cc1)Nc1ccc2c(c1)CCC2 | inactive: 16.6% |
| O=C(Nc1ccc(F)cc1)Nc1cccnc1 | inconclusive: 34.9% |
| COc1cc(C2/C(=C(\O)c3ccc4c(c3)OCCO4)C(=O)C(=O)N2Cc2ccco2)cc(OC)c1OC (centres undefined) | inactive: 0.161% |
| c1ccc(N2CCN(c3ncnc4c3oc3ccccc34)CC2)cc1 | inconclusive: 32.3% |
| Cc1ccc(CNc2nc3ccc(C)cc3n3cnnc23)cc1 | inconclusive: 33.5% |
| Cc1onc(-c2ccccc2Cl)c1C(=O)Nc1ccc(F)c(F)c1 | inactive: -2.37% |
| CCOc1ccc(CCNC(=O)CSc2cc(=O)n(CC)c3ccccc23)cc1OCC | inactive: -0.651% |
| COc1cccc(CNC(=O)CCCc2c[nH]c3ccccc23)c1 | inconclusive: 57.7% |
| CC/C(=N\NC(=O)c1ccncc1)C12CC3CC(CC(C3)C1)C2 | inconclusive: 32.8% |
| C=CCn1c(-c2ccc(S(=O)(=O)N3CCOCC3)cc2)csc1=Nc1ccccc1 | inactive: 2.45% |
| CCc1ccc(Nc2ncc3c(n2)CC(C)CC3=O)cc1 (centres undefined) | inconclusive: 38.4% |
| O=C(c1cc(Cl)ccc1F)N1CCCC(Nc2ccc3c(c2)OCCO3)C1 (centres undefined) | inconclusive: 61.1% |
| CCOC(=O)C1CCN(C(=O)/C=C/c2ccc(OC)cc2)CC1 | inconclusive: 45.9% |
| Cc1ccc(NC(=O)CCCc2ccccc2)nc1 | inconclusive: 56.5% |
| O=C(NNc1c2ccccc2nc2ccccc12)c1ccc(Cl)cc1 | inactive: 3.48% |
| O=C(c1noc2c1CCCC2)N1CCN(c2ccccc2)CC1 | inconclusive: 46.8% |
| COc1ccc(CCn2c(=N)c(C(=O)NC3CCCCC3)cc3c(=O)n4ccccc4nc32)cc1 | inconclusive: 41.8% |
| Cc1nc2c(-c3ccc(F)cc3)c(C)nn2c(C)c1CCC(=O)Nc1ccccc1F | inconclusive: 47.1% |
| COc1ccccc1N1CCN(C(=O)C(C)NC(=O)c2ccco2)CC1 (centres undefined) | inactive: 6.49% |
| COC(=O)[C@H]1[C@H]2C[C@@H]3c4[nH]c5cc(OC)ccc5c4CCN3C[C@H]2C[C@@H](OC(=O)/C=C/c2cc(OC)c(OC)c(OC)c2)[C@@H]1OC | inactive: 2.02% |
| O=c1cc2c(nn1Cc1ccc(Cl)cc1)-c1ccccc1CC2 | inconclusive: 51.1% |
| O=C(CCCc1ccccc1)Nc1ccc2c(c1)OCCO2 | inconclusive: 52.9% |

In another format: results already given
SMILES,activation
c1ccc(N2CCN(c3ncnc4c3oc3ccccc34)CC2)cc1,inconclusive: 32.3%
Cc1ccc(CNc2nc3ccc(C)cc3n3cnnc23)cc1,inconclusive: 33.5%
Cc1onc(-c2ccccc2Cl)c1C(=O)Nc1ccc(F)c(F)c1,inactive: -2.37%

(cont.)

| SMILES | activation |
| --- | --- |
| COc1cccc(-c2nc(CS(=O)(=O)CC(=O)NCCC(C)C)c(C)o2)c1 | inconclusive: 30.1% |
| CCc1ccc2[nH]c(O)c(N=Nc3nc(-c4ccccc4)cs3)c2c1 | inactive: -0.13% |
| COC1=C/C(=C/c2c(N)n3nc(CC(=O)N4CCCCC4)sc3nc2=O)C=CC1=O | inactive: 4.77% |
| Cc1ccc(N2CC(C(=O)OCc3nnc(-c4ccccc4)o3)CC2=O)cc1 (centres undefined) | inactive: 13.2% |
| CCOc1cc(N2CCOCC2)c(OCC)cc1NC(=O)c1ccc(C)s1 | inconclusive: 30.6% |
| CCCOc1ccc(C(=O)NNC(=S)NC(=O)c2ccccc2)cc1 | inactive: 21.1% |
| C/C(=N/Nc1ccccc1[N+](=O)[O-])c1ccc([N+](=O)[O-])cc1 | inactive: 1.77% |
| O=C(Nc1ccc2c(c1)OCCO2)C(c1ccc(F)cc1)N1CCCCC1 (centres undefined) | inconclusive: 38.2% |
| CC(C)=CCc1c2c(c3occ(-c4ccc(O)cc4)c(=O)c3c1O)C=CC(C)(C)O2 | inconclusive: 37.7% |
| CN(CCCNC(=O)CCC(=O)N1CCOc2ccc(Cl)cc21)Cc1ccccc1 | inactive: 2.6% |
| S=C(NC1CCCC1)N1CCN(c2ccc(Cl)cc2)CC1 | inconclusive: 39.2% |
| Cc1cc(SCC(=O)c2ccc(O)c(O)c2)nc2ccccc12 | inconclusive: 35.5% |
| CC(C)COP(=O)(OCC(C)C)C(Nc1ccccc1)c1ccc2c(c1)OCO2 (centres undefined) | inconclusive: 52.4% |
| Cc1cc(Cl)c(S(=O)(=O)N2CCCCCC2)cc1OCC(=O)NC1CCCCC1 | inconclusive: 50.5% |
| Cc1ccc(CNC(=O)c2cccc3c2C(=O)c2ccc(N4CCCCC4)cc2S3(=O)=O)cc1 | inactive: 14.3% |
| O=C(NCCc1cccs1)c1ccc(Cl)cc1 | inconclusive: 57% |
| O=C(Nc1ccc(O)cc1)c1cc2ccccc2c(=O)s1 | inconclusive: 56.6% |
| CCC(=O)N1N=C(c2cccs2)CC1c1ccco1 (centres undefined) | inactive: 4.93% |
| COC(=O)c1cc(OC)c(OC)cc1NC(=S)N1CCN(C/C=C/c2ccccc2)CC1 | inconclusive: 41.5% |
| Cc1ccc(NC(=O)c2ccccc2NC(=O)c2cccs2)cc1 | inconclusive: 35.4% |
| S=C(NCCc1ccccc1)N1CCn2cccc2C1c1cccnc1 (centres undefined) | inconclusive: 37.1% |
| CCOC(=O)N1CCN(c2ccc(C(=O)c3ccccc3)cc2F)CC1 | inconclusive: 50.9% |
| O=c1c2ccccc2nc(/C=C/c2ccccc2)n1CCCO | inconclusive: 40% |

| SMILES | activation |
| --- | --- |
| Cc1ccc(NC(=O)NC2CCCCCCC2)cc1 | inconclusive: 51.6% |
| CC(C)c1ccc(NC(=O)c2ccc3c(c2)CCN3S(C)(=O)=O)cc1 | inconclusive: 73.5% |
| CCCCC(=O)NC(NC(=S)N1CCCCCC1)C(Cl)(Cl)Cl (centres undefined) | inconclusive: 60.7% |
| CCc1ccc(OCC(=O)NC(NC(=S)Nc2ccccc2)C(Cl)(Cl)Cl)cc1 (centres undefined) | inconclusive: 37.6% |
| COc1cc(/C=C2\SC(=Nc3ccccc3)NC2=O)cc(Cl)c1O | inconclusive: 51.4% |
| CCCNC(=O)C1CN(S(=O)(=O)c2ccc(Cl)s2)c2ccccc2O1 (centres undefined) | inconclusive: 62.8% |
| O=C(/C=C/c1ccco1)Nc1ccc2c(c1)OCCO2 | inconclusive: 41.2% |
| CC(C)N(CCNCC(O)COc1ccc(C(C)(C)c2ccccc2)cc1)C(C)C (centres undefined) | inactive: 1.94% |
| CCOC(=O)COc1ccc2c(C)cc(=O)oc2c1C(=O)c1ccccc1 | inactive: 2.34% |
| CC(OC(=O)c1cc(=O)[nH]c2ccccc12)C(=O)N1C(C)CCCC1C (centres undefined) | inactive: 1.48% |
| COC(=O)COc1ccc(C)cc1-n1nc2ccccc2n1 | inconclusive: 36.8% |
| Cn1c(C(=O)c2ccncc2)cc2ccccc21 | inconclusive: 42.3% |
| C=CCNC(=O)COC(=O)c1cccnc1Nc1ccccc1F | inconclusive: 33.6% |
| CCOc1cc(C(=O)Nc2cc3c(cc2N2CCCC2)n(C)c(=O)n3C)cc(OCC)c1OCC | inconclusive: 64.3% |
| Cc1ccc(N(Cc2ccccc2)C(=O)c2ccc(F)c(S(=O)(=O)N3CCOCC3)c2)cc1 | inactive: 26% |
| COc1ccc(Nc2nc(C)nc3c2oc2ccccc23)c(OC)c1 | inconclusive: 35.7% |
| O=C(Nc1ccon1)c1ccc(OC2CCCC2)cc1 | inconclusive: 75.6% |
| Cc1ccc(NC(=O)C(Nc2ccccc2)c2ccccc2)cc1 (centres undefined) | inconclusive: 51% |
| O=C(Cc1ccc(-c2ccccc2)cc1)Nc1ccccc1 | inconclusive: 31% |
| O=C(c1ccc(N2CCCCC2)c([N+](=O)[O-])c1)N1CCOCC1 | inconclusive: 30.2% |
| Cc1ccc(N/N=C2\CCS(=O)(=O)c3sccc32)cc1 | inconclusive: 32% |
| O=C(NC12CC3CC(CC(C3)C1)C2)N1CCN(S(=O)(=O)c2ccc(Cl)cc2)CC1 | inconclusive: 44.8% |
| COc1ccc(C(=O)Nc2ccc3c(c2)OCCO3)cc1 | inconclusive: 55.1% |

| SMILES | activation |
| --- | --- |
| COC(=O)CSc1nc2cc(C)ccc2cc1C#N | inconclusive: 30.5% |
| COC(=O)[C@@H]1C[C@H]2CC[C@H](O)C[C@H]2N1Cc1ccc(C(C)(C)C)cc1 | inactive: 28.4% |
| Cc1ccc(SCCNC(=O)C(C)C)cc1 | inconclusive: 33% |
| Oc1ccccc1/C=N/n1cnn(Cc2ccccc2Cl)c1=S | inconclusive: 38.3% |
| CC1(C)CC(=O)c2sc(NC(=O)c3ccccc3)nc2C1 | inconclusive: 47.1% |
| COC(=O)C1=C(C)NC(C)=C(C(=O)OCCN(C)Cc2ccccc2)C1c1cccc([N+](=O)[O-])c1 (centres undefined) | inactive: -1.92% |
| Cc1ccc(C(=O)NCC2(c3ccccc3)CCCC2)cc1 | inconclusive: 49.8% |
| O=C(Cc1cccs1)NCc1ccc(Cl)cc1Cl | inconclusive: 60.1% |
| CC1(C)Cc2c(cnn2-c2ccc(F)cc2)C(NC(=O)CCN2CCCCO2)C1 (centres undefined) | inactive: 0.434% |
| O=C(COc1ccc(Cl)cc1)Nc1ccc(Cc2ccncc2)cc1 | inconclusive: 46.5% |
| Cc1ccc(C(=O)CSc2nnc(N)s2)c(C)c1 | inconclusive: 35.6% |
| Cc1ccc(-c2cc(C(=O)N3CCOCC3)no2)cc1 | inconclusive: 70.6% |
| Cc1cc(C(=O)OCC(=O)NC(=O)c2cccn2C)c2ccccc2n1 | inactive: -6.4% |
| CSc1cccc(NC(=O)CCc2ccccc2)c1 | inconclusive: 37.7% |
| Cc1cccc(Oc2nc(CN3CCOCC3)nc3sc4c(c23)CCCC4)c1 | inconclusive: 47.6% |
| CN(Cc1c(C(=O)N/N=C/c2cccc(F)c2)nnn1-c1nonc1N)c1ccccc1 | inconclusive: 52.7% |
| C[C@H](NC(=O)c1nc[nH]c1C(=O)N[C@@H](CCCCNC(=O)OC(C)(C)C)C(=O)OC(C)(C)C)C(=O)OC(C)(C)C | inconclusive: 49.6% |
| O=C(Nc1ccc2c(c1)OCO2)c1ccc(Br)s1 | inconclusive: 76.2% |
| Cc1ccc(C)c(CN2CCCN(C(=O)Cn3ncc4c3-c3ccccc3OC4)C2)c1 | inconclusive: 30.2% |
| COc1cc(-n2c(N)c(C(=O)NCc3ccco3)c3nc4ccccc4nc32)cc(OC)c1OC | inactive: 0.715% |
